In article PMC6910965:
Results are given in words; binding and its absence hold for the method and conditions named. In cells and extracts the contact can be indirect. Some entries that bind do so weakly or less than the wild type. Tags and fused reporters may be left off the sequences shown.

T1: WT BEST1-CFP-Myc (human) (UniProt O76090)
T1 sequence: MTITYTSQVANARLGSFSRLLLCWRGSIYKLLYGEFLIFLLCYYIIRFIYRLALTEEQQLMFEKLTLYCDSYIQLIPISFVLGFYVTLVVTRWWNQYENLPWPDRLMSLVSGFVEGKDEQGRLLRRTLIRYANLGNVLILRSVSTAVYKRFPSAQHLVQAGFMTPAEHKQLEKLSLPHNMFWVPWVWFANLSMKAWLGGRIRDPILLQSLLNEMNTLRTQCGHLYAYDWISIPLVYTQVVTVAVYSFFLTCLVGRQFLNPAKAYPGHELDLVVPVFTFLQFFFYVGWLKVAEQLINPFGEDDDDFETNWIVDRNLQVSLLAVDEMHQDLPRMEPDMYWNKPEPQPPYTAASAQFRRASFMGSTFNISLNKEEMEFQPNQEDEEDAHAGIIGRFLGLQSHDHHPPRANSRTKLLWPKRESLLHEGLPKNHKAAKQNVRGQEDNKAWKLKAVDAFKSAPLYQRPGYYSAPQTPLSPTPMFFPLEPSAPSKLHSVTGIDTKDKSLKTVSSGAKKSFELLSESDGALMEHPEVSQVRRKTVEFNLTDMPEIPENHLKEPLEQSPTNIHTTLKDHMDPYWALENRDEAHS


Molecular target: T1, WT BEST1-CFP-Myc (human)
Assay: co-IP; HEK293 cells co-transfected 1:1 with BEST1(WT)-CFP-myc and BEST1(mutant or WT)-YFP-His; lysis in 150 mM NaCl, 50 mM Tris, 0.5% IGEPAL CA-630, pH 7.4; precipitated with Myc monoclonal antibody and Dynabeads at 4 °C; blotted for His and Myc

| Binder | binding |
| --- | --- |
| WT BEST1-YFP-His (protein, UniProt O76090 1-585) MTITYTSQVANARLGSFSRLLLCWRGSIYKLLYGEFLIFLLCYYIIRFIYRLALTEEQQLMFEKLTLYCDSYIQLIPISFVLGFYVTLVVTRWWNQYENLPWPDRLMSLVSGFVEGKDEQGRLLRRTLIRYANLGNVLILRSVSTAVYKRFPSAQHLVQAGFMTPAEHKQLEKLSLPHNMFWVPWVWFANLSMKAWLGGRIRDPILLQSLLNEMNTLRTQCGHLYAYDWISIPLVYTQVVTVAVYSFFLTCLVGRQFLNPAKAYPGHELDLVVPVFTFLQFFFYVGWLKVAEQLINPFGEDDDDFETNWIVDRNLQVSLLAVDEMHQDLPRMEPDMYWNKPEPQPPYTAASAQFRRASFMGSTFNISLNKEEMEFQPNQEDEEDAHAGIIGRFLGLQSHDHHPPRANSRTKLLWPKRESLLHEGLPKNHKAAKQNVRGQEDNKAWKLKAVDAFKSAPLYQRPGYYSAPQTPLSPTPMFFPLEPSAPSKLHSVTGIDTKDKSLKTVSSGAKKSFELLSESDGALMEHPEVSQVRRKTVEFNLTDMPEIPENHLKEPLEQSPTNIHTTLKDHMDPYWALENRDEAHS | binds |
| BEST1 A10T-YFP-His (protein, UniProt O76090 1-585) MTITYTSQVTNARLGSFSRLLLCWRGSIYKLLYGEFLIFLLCYYIIRFIYRLALTEEQQLMFEKLTLYCDSYIQLIPISFVLGFYVTLVVTRWWNQYENLPWPDRLMSLVSGFVEGKDEQGRLLRRTLIRYANLGNVLILRSVSTAVYKRFPSAQHLVQAGFMTPAEHKQLEKLSLPHNMFWVPWVWFANLSMKAWLGGRIRDPILLQSLLNEMNTLRTQCGHLYAYDWISIPLVYTQVVTVAVYSFFLTCLVGRQFLNPAKAYPGHELDLVVPVFTFLQFFFYVGWLKVAEQLINPFGEDDDDFETNWIVDRNLQVSLLAVDEMHQDLPRMEPDMYWNKPEPQPPYTAASAQFRRASFMGSTFNISLNKEEMEFQPNQEDEEDAHAGIIGRFLGLQSHDHHPPRANSRTKLLWPKRESLLHEGLPKNHKAAKQNVRGQEDNKAWKLKAVDAFKSAPLYQRPGYYSAPQTPLSPTPMFFPLEPSAPSKLHSVTGIDTKDKSLKTVSSGAKKSFELLSESDGALMEHPEVSQVRRKTVEFNLTDMPEIPENHLKEPLEQSPTNIHTTLKDHMDPYWALENRDEAHS | binds |
| BEST1 R218H-YFP-His (protein, UniProt O76090 1-585) MTITYTSQVANARLGSFSRLLLCWRGSIYKLLYGEFLIFLLCYYIIRFIYRLALTEEQQLMFEKLTLYCDSYIQLIPISFVLGFYVTLVVTRWWNQYENLPWPDRLMSLVSGFVEGKDEQGRLLRRTLIRYANLGNVLILRSVSTAVYKRFPSAQHLVQAGFMTPAEHKQLEKLSLPHNMFWVPWVWFANLSMKAWLGGRIRDPILLQSLLNEMNTLHTQCGHLYAYDWISIPLVYTQVVTVAVYSFFLTCLVGRQFLNPAKAYPGHELDLVVPVFTFLQFFFYVGWLKVAEQLINPFGEDDDDFETNWIVDRNLQVSLLAVDEMHQDLPRMEPDMYWNKPEPQPPYTAASAQFRRASFMGSTFNISLNKEEMEFQPNQEDEEDAHAGIIGRFLGLQSHDHHPPRANSRTKLLWPKRESLLHEGLPKNHKAAKQNVRGQEDNKAWKLKAVDAFKSAPLYQRPGYYSAPQTPLSPTPMFFPLEPSAPSKLHSVTGIDTKDKSLKTVSSGAKKSFELLSESDGALMEHPEVSQVRRKTVEFNLTDMPEIPENHLKEPLEQSPTNIHTTLKDHMDPYWALENRDEAHS | binds |
| BEST1 L234P-YFP-His (protein, UniProt O76090 1-585) MTITYTSQVANARLGSFSRLLLCWRGSIYKLLYGEFLIFLLCYYIIRFIYRLALTEEQQLMFEKLTLYCDSYIQLIPISFVLGFYVTLVVTRWWNQYENLPWPDRLMSLVSGFVEGKDEQGRLLRRTLIRYANLGNVLILRSVSTAVYKRFPSAQHLVQAGFMTPAEHKQLEKLSLPHNMFWVPWVWFANLSMKAWLGGRIRDPILLQSLLNEMNTLRTQCGHLYAYDWISIPPVYTQVVTVAVYSFFLTCLVGRQFLNPAKAYPGHELDLVVPVFTFLQFFFYVGWLKVAEQLINPFGEDDDDFETNWIVDRNLQVSLLAVDEMHQDLPRMEPDMYWNKPEPQPPYTAASAQFRRASFMGSTFNISLNKEEMEFQPNQEDEEDAHAGIIGRFLGLQSHDHHPPRANSRTKLLWPKRESLLHEGLPKNHKAAKQNVRGQEDNKAWKLKAVDAFKSAPLYQRPGYYSAPQTPLSPTPMFFPLEPSAPSKLHSVTGIDTKDKSLKTVSSGAKKSFELLSESDGALMEHPEVSQVRRKTVEFNLTDMPEIPENHLKEPLEQSPTNIHTTLKDHMDPYWALENRDEAHS | binds |
| BEST1 A243T-YFP-His (protein, UniProt O76090 1-585) MTITYTSQVANARLGSFSRLLLCWRGSIYKLLYGEFLIFLLCYYIIRFIYRLALTEEQQLMFEKLTLYCDSYIQLIPISFVLGFYVTLVVTRWWNQYENLPWPDRLMSLVSGFVEGKDEQGRLLRRTLIRYANLGNVLILRSVSTAVYKRFPSAQHLVQAGFMTPAEHKQLEKLSLPHNMFWVPWVWFANLSMKAWLGGRIRDPILLQSLLNEMNTLRTQCGHLYAYDWISIPLVYTQVVTVTVYSFFLTCLVGRQFLNPAKAYPGHELDLVVPVFTFLQFFFYVGWLKVAEQLINPFGEDDDDFETNWIVDRNLQVSLLAVDEMHQDLPRMEPDMYWNKPEPQPPYTAASAQFRRASFMGSTFNISLNKEEMEFQPNQEDEEDAHAGIIGRFLGLQSHDHHPPRANSRTKLLWPKRESLLHEGLPKNHKAAKQNVRGQEDNKAWKLKAVDAFKSAPLYQRPGYYSAPQTPLSPTPMFFPLEPSAPSKLHSVTGIDTKDKSLKTVSSGAKKSFELLSESDGALMEHPEVSQVRRKTVEFNLTDMPEIPENHLKEPLEQSPTNIHTTLKDHMDPYWALENRDEAHS | binds |
| BEST1 Q293K-YFP-His (protein, UniProt O76090 1-585) MTITYTSQVANARLGSFSRLLLCWRGSIYKLLYGEFLIFLLCYYIIRFIYRLALTEEQQLMFEKLTLYCDSYIQLIPISFVLGFYVTLVVTRWWNQYENLPWPDRLMSLVSGFVEGKDEQGRLLRRTLIRYANLGNVLILRSVSTAVYKRFPSAQHLVQAGFMTPAEHKQLEKLSLPHNMFWVPWVWFANLSMKAWLGGRIRDPILLQSLLNEMNTLRTQCGHLYAYDWISIPLVYTQVVTVAVYSFFLTCLVGRQFLNPAKAYPGHELDLVVPVFTFLQFFFYVGWLKVAEKLINPFGEDDDDFETNWIVDRNLQVSLLAVDEMHQDLPRMEPDMYWNKPEPQPPYTAASAQFRRASFMGSTFNISLNKEEMEFQPNQEDEEDAHAGIIGRFLGLQSHDHHPPRANSRTKLLWPKRESLLHEGLPKNHKAAKQNVRGQEDNKAWKLKAVDAFKSAPLYQRPGYYSAPQTPLSPTPMFFPLEPSAPSKLHSVTGIDTKDKSLKTVSSGAKKSFELLSESDGALMEHPEVSQVRRKTVEFNLTDMPEIPENHLKEPLEQSPTNIHTTLKDHMDPYWALENRDEAHS | binds |
| BEST1 D302A-YFP-His (protein, UniProt O76090 1-585) MTITYTSQVANARLGSFSRLLLCWRGSIYKLLYGEFLIFLLCYYIIRFIYRLALTEEQQLMFEKLTLYCDSYIQLIPISFVLGFYVTLVVTRWWNQYENLPWPDRLMSLVSGFVEGKDEQGRLLRRTLIRYANLGNVLILRSVSTAVYKRFPSAQHLVQAGFMTPAEHKQLEKLSLPHNMFWVPWVWFANLSMKAWLGGRIRDPILLQSLLNEMNTLRTQCGHLYAYDWISIPLVYTQVVTVAVYSFFLTCLVGRQFLNPAKAYPGHELDLVVPVFTFLQFFFYVGWLKVAEQLINPFGEDADDFETNWIVDRNLQVSLLAVDEMHQDLPRMEPDMYWNKPEPQPPYTAASAQFRRASFMGSTFNISLNKEEMEFQPNQEDEEDAHAGIIGRFLGLQSHDHHPPRANSRTKLLWPKRESLLHEGLPKNHKAAKQNVRGQEDNKAWKLKAVDAFKSAPLYQRPGYYSAPQTPLSPTPMFFPLEPSAPSKLHSVTGIDTKDKSLKTVSSGAKKSFELLSESDGALMEHPEVSQVRRKTVEFNLTDMPEIPENHLKEPLEQSPTNIHTTLKDHMDPYWALENRDEAHS | binds |
